Measurements from US20080108569A1, “Compositions and Methods for Treating Diseases Associated With Phlpp” (The Regents of the University of California, priority 2005, published 2008).
No constants are given. Whether binding was seen depends on the method and setting. Binding seen in cells or lysates may run through a third protein. Some entries that bind do so weakly or less than the wild type. Where a sequence is shown, tags or fusion partners need not be part of it.

Protein sequences, listed by entry. Tags and fused reporters are not part of them.
UniProt P31749: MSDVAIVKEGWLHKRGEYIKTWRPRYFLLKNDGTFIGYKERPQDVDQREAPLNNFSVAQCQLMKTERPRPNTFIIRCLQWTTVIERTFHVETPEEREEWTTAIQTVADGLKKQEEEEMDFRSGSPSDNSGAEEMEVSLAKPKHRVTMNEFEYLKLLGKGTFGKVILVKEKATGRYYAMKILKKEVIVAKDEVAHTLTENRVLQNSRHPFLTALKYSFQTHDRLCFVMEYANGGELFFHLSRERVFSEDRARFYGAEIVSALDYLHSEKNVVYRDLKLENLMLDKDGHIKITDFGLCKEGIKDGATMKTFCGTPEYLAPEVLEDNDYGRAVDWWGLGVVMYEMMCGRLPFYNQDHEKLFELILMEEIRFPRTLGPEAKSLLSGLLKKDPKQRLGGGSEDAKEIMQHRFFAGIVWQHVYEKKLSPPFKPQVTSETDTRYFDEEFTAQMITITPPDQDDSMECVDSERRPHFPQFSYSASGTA

Target: endogenous Akt (UniProt P31749)
Experiment: co-immunoprecipitation from 293T cells, in both directions (anti-HA and Akt agarose), Western blot

binding: binds
B1: HA-tagged full length PHLPP2 (enzyme)
chain: MGYPYDVPDYAMKRNGSRNCLNRRSRFGSRERDWLREDVKRGCVYLYGADTTTATTTTTTSSSSSSSSSSSDLHLVLCTVETPASEICAGEGRESLYLQLHGDLVRRLEPTERPLQIVYDYLSRLGFDDPVRIQEEATNPDLGCMIRFYGEKPCHMDRLDRILLSGIYNVRKGKTQLHKWAERLVVLCGTCLIVSSVKDCQTGKMHILPLVGGKIEEVKRRQYSLAFSSAGAQAQTYHVSFETLAEYQRWQRQASKVVSQRISTVDLSCYSLEEVPEHLFYSQDITYLNLRHNFMQLERPGGLDTLYKFSQLKGLNLSHNKLGLFPILLCEISTLTELNLSCNGFHDLPSQIGNLLNLQTLCLDGNFLTTLPEELGNLQQLSSLGISFNNFSQIPEVYEKLTMLDRVVMAGNCLEVLNLGVLNRMNHIKHVDLRMNHLKTMVIENLEGNKHITHVDLRDNRLTDLDLSSLCSLEQLHCGRNQLRELTLSGFSLRTLYASSNRLTAVNVYPVPSLLTFLDLSRNLLECVPDWACEAKKIEVLDVSYNLLTEVPVRILSSLSLRKLMLGHNHVQNLPTLVEHIPLEVLDLQHNALTRLPDTLFSKALNLRYLNASANSLESLPSACTGEESLSMLQLLYLTNNLLTDQCIPVLVGHLHLRILHLANNQLQTFPASKLNKLEQLEELNLSGNKLKTIPTTIANCKRLHTLVAHSNNISIFPEILQLPQIQFVDLSCNDLTEILIPEALPATLQDLDLTGNTNLVLEHKTLDIFSHITTLKIDQKPLPTTDSTVTSTFWSHGLAEMAGQRNKLCVSALAMDSFAEGVGAVYGMFDGDRNEELPRLLQCTMADVLLEEVQQSTNDTVFMANTFLVSHRKLGMAGQKLGSSALLCYIRPDTADPASSFSLTVANVGTCQAVLCRGGKPVPLSKVFSLEQDPEEAQRVKDQKAIITEDNKVNGVTCCTRMLGCTYLYPWILPKPHISSTPLTIQDELLILGNKALWEHLSYTEAVNAVRHVQDPLAAAKKLCTLAQSYGCQDNVGAMVVYLNIGEEGCTCEMNGLTLPGPVGFASTTTIKDAPKPATPSSSSGIASEFSSEMSTSEVSSEVGSTASDEHNAGGLDTALLPRPERRCSLHPTPTSGLFQRQPSSATFSSNQSDNGLDSDDDQPVEGVITNGSKVEVEVDIHCCRGRDLENSPPLIESSPTLCSEEHARGSCFGIRRQNSVNSGMLLPMSKDRMELQKSPSTSCLYGKKLSNGSIVPLEDSLNLIEVATEVPKRKTGYFAAPTQMEPEDQFVVPHDLEEEVKEQMKQHQDSRLEPEPHEEDRTEPPEEFDTAL
